Data as given in PubChem BioAssay AID1053208 (Peter MacCallum Cancer Centre, 2014).

Assay: 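Find knock-downs that sensitise mouse osteosarcoma cells to doxorubicin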 (primary screen)
System: mouse osteosarcoma cells, early-passage culture from an engineered mouse model of fibroblastic bone tumour
Reagents: siRNA pool against mouse genes, 40 nM
Time to read-out: about 120 h (48 h before drug, then 72 h with drug)
Challenge: doxorubicin 100 nM for 72 h, roughly 30-40% inhibitory dose
Measurement: 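Luminescent ATP signal taken as viability with or without 100 nM doxorubicin for 72 h; mean of two wells set against non-targeting siRNA and turned into robust z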
Reading the numbers: viability z-score with doxorubicin: higher = more viable cells under doxorubicin; viability z-score without drug: higher = more viable cells with knock-down alone
Call rule: 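a pool counts as active when its viability z-score with doxorubicin is -2 or below and its z-score without drug lies between -2 and 2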
Here is an unselected part of about 17,000 reagents. Over the whole deposit, 788 (4.7%) got an active call. 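Calls rest on z-score classes alone; an extra cut-off of viability at most 70% of control was not applied to them.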 Unmarked entries are inactive. The numbers tell different reagents against one gene apart. Not all columns of the deposit are shown.

The opening 3 records as a preview:
gene symbol,reagent,combined z-score class,viability z-score with doxorubicin,viability z-score without drug
Or2ag2,1,no change with or without drug,0.56,-0.17
Prss30,1,no change with or without drug,1.57,0.51
Plscr2,1,low cell count with doxorubicin only (active),-2.59,-0.51

The list itself, from the first entry:
gene symbol,reagent,combined z-score class,viability z-score with doxorubicin,viability z-score without drug
Or2ag2,1,no change with or without drug,0.56,-0.17
Prss30,1,no change with or without drug,1.57,0.51
Plscr2,1,low cell count with doxorubicin only (active),-2.59,-0.51
E2f2,1,high cell count with doxorubicin only,2.25,1.18
E2f2,2,no change with or without drug,-1.91,0.51
Kdm4a,1,low cell count with doxorubicin only (active),-2.36,-0.17
Cdcp2,1,no change with or without drug,0.56,1.69
Slc49a4,1,high cell count with doxorubicin only,2.59,0.84
Ccnd2,1,no change with or without drug,-0.22,0.17
Zfp655,1,no change with or without drug,1.01,0.84
Mark4,1,no change with or without drug,-1.57,0.67
Tomm7,1,no change with or without drug,-0.56,-1.18
Ankef1,1,no change with or without drug,-1.12,0.34
Uggt1,1,no change with or without drug,-1.57,-0.84
Nrm,1,no change with or without drug,1.12,0.84
Ccr10,1,no change with or without drug,-0.22,-0.67
Ly6g5c,1,no change with or without drug,1.57,0.51
Ubxn11,1,no change with or without drug,-0.9,0.17
Mtap,1,no change with or without drug,0.34,0.34
Map1a,1,no change with or without drug,0.22,-0.17
Gpx8,1,no change with or without drug,-0.67,0.67
Defb50,1,no change with or without drug,1.35,0.51
Diaph2,1,no change with or without drug,1.57,-0.17
Mcpt2,1,no change with or without drug,1.12,-0.84
Efcab5,1,no change with or without drug,-1.57,-0.17
Cpsf7,1,high cell count without drug only,1.12,2.19
Clns1a,1,no change with or without drug,-1.57,-1.69
Tmtc2,1,no change with or without drug,0.22,1.18
Tmtc2,2,no change with or without drug,-0.67,-0.17
Ahdc1,1,no change with or without drug,1.35,0.84
Rbl1,1,no change with or without drug,0.56,0.17
Cdh1,1,no change with or without drug,-0.45,0.17
Ankrd13d,1,no change with or without drug,-0.9,-0.34
Retnlg,1,no change with or without drug,-0.79,-0.17
Cox7a1,1,high cell count with and without drug,2.02,2.53
Sh3gl3,1,no change with or without drug,0.45,-0.84
Selenov,1,low cell count without drug only,-0.22,-2.19
Cpne6,1,no change with or without drug,1.35,1.52
Erh,1,low cell count with doxorubicin only (active),-2.59,-0.51
Snx24,1,no change with or without drug,0.56,0.67
Thrap3,1,no change with or without drug,0,0.67
Krt27,1,no change with or without drug,0.79,-0.17
Pim1,1,high cell count without drug only,0.67,3.2
Or14j2,1,low cell count with doxorubicin only (active),-2.02,-1.85
Trappc12,1,no change with or without drug,-0.22,0.34
Synpr,1,no change with or without drug,1.01,0.84
Atoh7,1,no change with or without drug,-0.22,-0.84
Itm2b,1,no change with or without drug,-1.24,-0.84
Cflar,1,no change with or without drug,-0.11,1.18
Or8b3b,1,no change with or without drug,0.11,0.34
